The chains are these.
B1: CCNL1 (protein, UniProt Q9UK58 1-526)
chain: MASGPHSTATAAAAASSAAPSAGGSSSGTTTTTTTTTGGILIGDRLYSEVSLTIDHSLIPEERLSPTPSMQDGLDLPSETDLRILGCELIQAAGILLRLPQVAMATGQVLFHRFFYSKSFVKHSFEIVAMACINLASKIEEAPRRIRDVINVFHHLRQLRGKRTPSPLILDQNYINTKNQVIKAERRVLKELGFCVHVKHPHKIIVMYLQVLECERNQTLVQTAWNYMNDSLRTNVFVRFQPETIACACIYLAARALQIPLPTRPHWFLLFGTTEEEIQEICIETLRLYTRKKPNYELLEKEVEKRKVALQEAKLKAKGLNPDGTPALSTLGGFSPASKPSSPREVKAEEKSPISINVKTVKKEPEDRQQASKSPYNGVRKDSKRSRNSRSASRSRSRTRSRSRSHTPRRHYNNRRSRSGTYSSRSRSRSRSHSESPRRHHNHGSPHLKAKHTRDDLKSSNRHGHKRKKSRSRSQSKSRDHSDAAKKHRHERGHHRDRRERSRSFERSHKSKHHGGSRSGHGRHRR
B2: CTNND2 (protein, UniProt Q9UQB3 1-1225)
chain: MFARKPPGAAPLGAMPVPDQPSSASEKTSSLSPGLNTSNGDGSETETTSAILASVKEQELQFERLTRELEAERQIVASQLERCKLGSETGSMSSMSSAEEQFQWQSQDGQKDIEDELTTGLELVDSCIRSLQESGILDPQDYSTGERPSLLSQSALQLNSKPEGSFQYPASYHSNQTLALGETTPSQLPARGTQARATGQSFSQGTTSRAGHLAGPEPAPPPPPPPREPFAPSLGSAFHLPDAPPAAAAAALYYSSSTLPAPPRGGSPLAAPQGGSPTKLQRGGSAPEGATYAAPRGSSPKQSPSRLAKSYSTSSPINIVVSSAGLSPIRVTSPPTVQSTISSSPIHQLSSTIGTYATLSPTKRLVHASEQYSKHSQELYATATLQRPGSLAAGSRASYSSQHGHLGPELRALQSPEHHIDPIYEDRVYQKPPMRSLSQSQGDPLPPAHTGTYRTSTAPSSPGVDSVPLQRTGSQHGPQNAAAATFQRASYAAGPASNYADPYRQLQYCPSVESPYSKSGPALPPEGTLARSPSIDSIQKDPREFGWRDPELPEVIQMLQHQFPSVQSNAAAYLQHLCFGDNKIKAEIRRQGGIQLLVDLLDHRMTEVHRSACGALRNLVYGKANDDNKIALKNCGGIPALVRLLRKTTDLEIRELVTGVLWNLSSCDALKMPIIQDALAVLTNAVIIPHSGWENSPLQDDRKIQLHSSQVLRNATGCLRNVSSAGEEARRRMRECDGLTDALLYVIQSALGSSEIDSKTVENCVCILRNLSYRLAAETSQGQHMGTDELDGLLCGEANGKDAESSGCWGKKKKKKKSQDQWDGVGPLPDCAEPPKGIQMLWHPSIVKPYLTLLSECSNPDTLEGAAGALQNLAAGSWKWSVYIRAAVRKEKGLPILVELLRIDNDRVVCAVATALRNMALDVRNKELIGKYAMRDLVHRLPGGNNSNNTASKAMSDDTVTAVCCTLHEVITKNMENAKALRDAGGIEKLVGISKSKGDKHSPKVVKAASQVLNSMWQYRDLRSLYKKDGWSQYHFVASSSTIERDRQRPYSSSRTPSISPVRVSPNNRSASAPASPREMISLKERKTDYECTGSNATYHGAKGEHTSRKDAMTAQNTGISTLYRNSYGAPAEDIKHNQVSAQPVPQEPSRKDYETYQPFQNSTRNYDESFFEDQVHHRPPASEYTMHLGLKSTGNYVDFYSAARPYSELNYETSHYPASPDSWV
B3: XRN2 (protein, UniProt Q9H0D6 1-950)
chain: MGVPAFFRWLSRKYPSIIVNCVEEKPKECNGVKIPVDASKPNPNDVEFDNLYLDMNGIIHPCTHPEDKPAPKNEDEMMVAIFEYIDRLFSIVRPRRLLYMAIDGVAPRAKMNQQRSRRFRASKEGMEAAVEKQRVREEILAKGGFLPPEEIKERFDSNCITPGTEFMDNLAKCLRYYIADRLNNDPGWKNLTVILSDASAPGEGEHKIMDYIRRQRAQPNHDPNTHHCLCGADADLIMLGLATHEPNFTIIREEFKPNKPKPCGLCNQFGHEVKDCEGLPREKKGKHDELADSLPCAEGEFIFLRLNVLREYLERELTMASLPFTFDVERSIDDWVFMCFFVGNDFLPHLPSLEIRENAIDRLVNIYKNVVHKTGGYLTESGYVNLQRVQMIMLAVGEVEDSIFKKRKDDEDSFRRRQKEKRKRMKRDQPAFTPSGILTPHALGSRNSPGSQVASNPRQAAYEMRMQNNSSPSISPNTSFTSDGSPSPLGGIKRKAEDSDSEPEPEDNVRLWEAGWKQRYYKNKFDVDAADEKFRRKVVQSYVEGLCWVLRYYYQGCASWKWYYPFHYAPFASDFEGIADMPSDFEKGTKPFKPLEQLMGVFPAASGNFLPPSWRKLMSDPDSSIIDFYPEDFAIDLNGKKYAWQGVALLPFVDERRLRAALEEVYPDLTPEETRRNSLGGDVLFVGKHHPLHDFILELYQTGSTEPVEVPPELCHGIQGKFSLDEEAILPDQIVCSPVPMLRDLTQNTVVSINFKDPQFAEDYIFKAVMLPGARKPAAVLKPSDWEKSSNGRQWKPQLGFNRDRRPVHLDQAAFRTLGHVMPRGSGTGIYSNAAPPPVTYQGNLYRPLLRGQAQIPKLMSNMRPQDSWRGPPPLFQQQRFDRGVGAEPLLPWNRMLQTQNAAFQPNQYQMLAGPGGYPPRRDDRGGRQGYPREGRKYPLPPPSGRYNWN
B4: TRNT1 (protein, UniProt Q96Q11 42-434)
chain: TEGLKSLTELFVKENHELRIAGGAVRDLLNGVKPQDIDFATTATPTQMKEMFQSAGIRMINNRGEKHGTITARLHEENFEITTLRIDVTTDGRHAEVEFTTDWQKDAERRDLTINSMFLGFDGTLFDYFNGYEDLKNKKVRFVGHAKQRIQEDYLRILRYFRFYGRIVDKPGDHDPETLEAIAENAKGLAGISGERIWVELKKILVGNHVNHLIHLIYDLDVAPYIGLPANASLEEFDKVSKNVDGFSPKPVTLLASLFKVQDDVTKLDLRLKIAKEEKNLGLFIVKNRKDLIKATDSSDPLKPYQDFIIDSREPDATTRVCELLKYQGEHCLLKEMQQWSIPPFPVSGHDIRKVGISSGKEIGALLQQLREQWKKSGYQMEKDELLSYIKKT
B5: ERCC2 (protein, UniProt P18074 1-760)
chain: MKLNVDGLLVYFPYDYIYPEQFSYMRELKRTLDAKGHGVLEMPSGTGKTVSLLALIMAYQRAYPLEVTKLIYCSRTVPEIEKVIEELRKLLNFYEKQEGEKLPFLGLALSSRKNLCIHPEVTPLRFGKDVDGKCHSLTASYVRAQYQHDTSLPHCRFYEEFDAHGREVPLPAGIYNLDDLKALGRRQGWCPYFLARYSILHANVVVYSYHYLLDPKIADLVSKELARKAVVVFDEAHNIDNVCIDSMSVNLTRRTLDRCQGNLETLQKTVLRIKETDEQRLRDEYRRLVEGLREASAARETDAHLANPVLPDEVLQEAVPGSIRTAEHFLGFLRRLLEYVKWRLRVQHVVQESPPAFLSGLAQRVCIQRKPLRFCAERLRSLLHTLEITDLADFSPLTLLANFATLVSTYAKGFTIIIEPFDDRTPTIANPILHFSCMDASLAIKPVFERFQSVIITSGTLSPLDIYPKILDFHPVTMATFTMTLARVCLCPMIIGRGNDQVAISSKFETREDIAVIRNYGNLLLEMSAVVPDGIVAFFTSYQYMESTVASWYEQGILENIQRNKLLFIETQDGAETSVALEKYQEACENGRGAILLSVARGKVSEGIDFVHHYGRAVIMFGVPYVYTQSRILKARLEYLRDQFQIRENDFLTFDAMRHAAQCVGRAIRGKTDYGLMVFADKRFARGDKRGKLPRWIQEHLTDANLNLTVDEGVQVAKYFLRQMAQPFHREDQLGLSLLSLEQLESEETLKRIEQIAQQL
B6: ADNP (protein, UniProt Q9H2P0 1-1102)
chain: MFQLPVNNLGSLRKARKTVKKILSDIGLEYCKEHIEDFKQFEPNDFYLKNTTWEDVGLWDPSLTKNQDYRTKPFCCSACPFSSKFFSAYKSHFRNVHSEDFENRILLNCPYCTFNADKKTLETHIKIFHAPNASAPSSSLSTFKDKNKNDGLKPKQADSVEQAVYYCKKCTYRDPLYEIVRKHIYREHFQHVAAPYIAKAGEKSLNGAVPLGSNAREESSIHCKRCLFMPKSYEALVQHVIEDHERIGYQVTAMIGHTNVVVPRSKPLMLIAPKPQDKKSMGLPPRIGSLASGNVRSLPSQQMVNRLSIPKPNLNSTGVNMMSSVHLQQNNYGVKSVGQGYSVGQSMRLGLGGNAPVSIPQQSQSVKQLLPSGNGRSYGLGSEQRSQAPARYSLQSANASSLSSGQLKSPSLSQSQASRVLGQSSSKPAAAATGPPPGNTSSTQKWKICTICNELFPENVYSVHFEKEHKAEKVPAVANYIMKIHNFTSKCLYCNRYLPTDTLLNHMLIHGLSCPYCRSTFNDVEKMAAHMRMVHIDEEMGPKTDSTLSFDLTLQQGSHTNIHLLVTTYNLRDAPAESVAYHAQNNPPVPPKPQPKVQEKADIPVKSSPQAAVPYKKDVGKTLCPLCFSILKGPISDALAHHLRERHQVIQTVHPVEKKLTYKCIHCLGVYTSNMTASTITLHLVHCRGVGKTQNGQDKTNAPSRLNQSPSLAPVKRTYEQMEFPLLKKRKLDDDSDSPSFFEEKPEEPVVLALDPKGHEDDSYEARKSFLTKYFNKQPYPTRREIEKLAASLWLWKSDIASHFSNKRKKCVRDCEKYKPGVLLGFNMKELNKVKHEMDFDAEWLFENHDEKDSRVNASKTADKKLNLGKEDDSSSDSFENLEEESNESGSPFDPVFEVEPKISNDNPEEHVLKVIPEDASESEEKLDQKEDGSKYETIHLTEEPTKLMHNASDSEVDQDDVVEWKDGASPSESGPGSQQVSDFEDNTCEMKPGTWSDESSQSEDARSSKPAAKKKATMQGDREQLKWKNSSYGKVEGFWSKDQSQWKNASENDERLSNPQIEWQNSTIDSEDGEQFDNMTDGVAEPMHGSLAGVKLSSQQA
B7: SRRM1 (protein, UniProt Q8IYB3 1-904)
chain: MDAGFFRGTSAEQDNRFSNKQKKLLKQLKFAECLEKKVDMSKVNLEVIKPWITKRVTEILGFEDDVVIEFIFNQLEVKNPDSKMMQINLTGFLNGKNAREFMGELWPLLLSAQENIAGIPSAFLELKKEEIKQRQIEQEKLASMKKQDEDKDKRDKEEKESSREKRERSRSPRRRKSRSPSPRRRSSPVRRERKRSHSRSPRHRTKSRSPSPAPEKKEKTPELPEPSVKVKEPSVQEATSTSDILKVPKPEPIPEPKEPSPEKNSKKEKEKEKTRPRSRSRSKSRSRTRSRSPSHTRPRRRHRSRSRSYSPRRRPSPRRRPSPRRRTPPRRMPPPPRHRRSRSPVRRRRRSSASLSGSSSSSSSSRSRSPPKKPPKRTSSPPRKTRRLSPSASPPRRRHRPSPPATPPPKTRHSPTPQQSNRTRKSRVSVSPGRTSGKVTKHKGTEKRESPSPAPKPRKVELSESEEDKGGKMAAADSVQQRRQYRRQNQQSSSDSGSSSSSEDERPKRSHVKNGEVGRRRRHSPSRSASPSPRKRQKETSPRGRRRRSPSPPPTRRRRSPSPAPPPRRRRTPTPPPRRRTPSPPPRRRSPSPRRYSPPIQRRYSPSPPPKRRTASPPPPPKRRASPSPPPKRRVSHSPPPKQRSSPVTKRRSPSLSSKHRKGSSPSRSTREARSPQPNKRHSPSPRPRAPQTSSSPPPVRRGASSSPQRRQSPSPSTRPIRRVSRTPEPKKIKKAASPSPQSVRRVSSSRSVSGSPEPAAKKPPAPPSPVQSQSPSTNWSPAVPVKKAKSPTPSPSPPRNSDQEGGGKKKKKKKDKKHKKDKKHKKHKKHKKEKAVAAAAAAAVTPAAIAAATTTLAQEEPVAAPEPKKETESEAEDNLDDLEKHLREKALRSMRKAQVSPQS

Sequences of proteins named here, by UniProt entry; tags and fusion partners are left off.
UniProt P03372: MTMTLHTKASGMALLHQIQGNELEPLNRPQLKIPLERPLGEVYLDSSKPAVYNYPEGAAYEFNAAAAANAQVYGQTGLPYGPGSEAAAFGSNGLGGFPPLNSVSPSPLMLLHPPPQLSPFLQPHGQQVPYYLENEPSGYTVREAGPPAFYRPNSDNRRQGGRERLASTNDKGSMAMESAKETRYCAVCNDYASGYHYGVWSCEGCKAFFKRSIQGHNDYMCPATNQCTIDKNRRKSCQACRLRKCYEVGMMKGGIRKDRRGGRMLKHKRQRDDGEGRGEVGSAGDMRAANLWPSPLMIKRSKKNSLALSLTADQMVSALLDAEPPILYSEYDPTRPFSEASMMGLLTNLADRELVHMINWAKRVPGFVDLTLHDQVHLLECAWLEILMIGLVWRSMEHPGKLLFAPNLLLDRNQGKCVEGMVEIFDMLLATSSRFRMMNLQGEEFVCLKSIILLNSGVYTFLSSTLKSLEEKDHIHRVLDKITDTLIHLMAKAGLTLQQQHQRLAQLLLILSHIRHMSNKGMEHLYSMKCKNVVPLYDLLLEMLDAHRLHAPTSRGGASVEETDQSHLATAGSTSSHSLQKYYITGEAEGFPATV

From article PMC5548489 come the findings set out here.

These are yes or no findings as the source states them, for the method shown. Binding seen in cells or lysates may run through a third protein. These calls come from enrichment with a bait or labelling near it, and not all partners need be listed.

In the experiment the target is estrogen receptor alpha (ER) (human (endogenous in MCF-7 and ZR-75)) (UniProt P03372). Briefly: affinity purification with mass spectrometry; anti-ER antibody (Santa Cruz sc-8002) on Dynabeads Protein G, 1.5 mg lysate of MCF-7 or ZR-75 cells overnight at 4°C; cells starved, vehicle or 10 µM ERX-11 for 2 hr, then 10 nM E2 for 2 hr; the named proteins are ER binders whose co-precipitation was disrupted by ERX-11.
Consider B1, for which the binding entry is reported as “binds”.

For B2, the binding entry is on record as “binds”. In the case of B3 it was “binds”; in that of B4, “binds”. To B5 belongs “binds”; to B6, “binds”; to B7, “binds”.
